Measurements published in PubChem BioAssay AID2685 (National Center for Advancing Translational Sciences (NCATS), 2010).
The other results are listed elsewhere or left out. Shown are side measurements of this screen, not its main read-out; they come without a call. Most of these compounds were active or inconclusive in the main read-out, so they are no random draw. The note in brackets gives the kind of curve behind each potency; many fits are weak.

Experiment: qHTS Assay for Lipid Storage Modulators in Drosophila S3 Cells;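 on cell number change: cells counted by Cell Tracker Red CMTPX staining in the red channel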
Conditions: BODIPY lipid droplet fluorescence, 18-24 h; for cell number change: measured here: cell count max response, cells fed with added oleic acid
Procedure, shortened: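 Drosophila S3 cells loaded with oleic acid (400 uM, as added) and compounds at several concentrations; lipid droplets imaged by 488-nm laser-scanning cytometry, 500–530 nm intensity and object ratio to cell channel. Percent activity normalized to 20 uM Triacsin C.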

[1] = measured here: lipid fluorescence (Fed channel) AC50, cells fed with added oleic acid
[2] = measured here: cell number channel AC50, cells fed with added oleic acid

| SMILES | cell number change | AC50 [1] | AC50 [2] |
| --- | --- | --- | --- |
| S=C(NCCc1ccccc1)Nc1ccc(Cl)cc1 | -0.161% | 6.51 µM [rising, single point] |  |
| COc1ccc2nc(C)cc(SCC(=O)Nc3c(C)cc(C)cc3C)c2c1 | 30.2% |  | 0.116 µM [rising, full curve, poor fit] |
| CC1=C(C(=O)Nc2ccccc2)C(c2ccc(Cl)cc2)n2c(s/c(=C/c3cccc(OCC(=O)O)c3)c2=O)=N1 (stereo not drawn) | -23% |  | 7.31 µM [falling, single point] |
| O=C(CNS(=O)(=O)c1ccccc1)OCC(=O)c1ccc(Br)cc1 | 13.9% |  |  |
| Cc1c(C)c2ccc(O)c(CN3CCCC3)c2oc1=O | 19% | 0.461 µM [falling, single point] |  |
| CCOC(=O)CSc1cccc2cccnc12 | -38% |  | 8.2 µM [falling, partial curve] |
| Cc1ccc(S(=O)(=O)N2CCOCC2)cc1NC(=O)Cn1nc(C)c([N+](=O)[O-])c1C | -25% |  |  |
| COc1cc2[nH]c(=S)nc(NC3CCCC3)c2cc1OC | -26% | 25.9 µM [falling, single point] |  |
| CC1=C(C(=O)OC2CCCCC2)C(c2ccccc2)NC(=O)N1 (stereo not drawn) | -67.5% | 0.0058 µM [falling, full curve, poor fit] | 16.4 µM [falling, partial curve, poor fit] |
| CCSc1nc2c(c(=O)[nH]1)C(c1cccnc1)C(C(=O)OC(C)C)=C(C)N2 (stereo not drawn) | -17.8% | 20.6 µM [falling, single point] |  |
| O=P(O)(O)CP(=O)(O)O | -15.9% |  | 6.51 µM [falling, single point] |
| Cc1cccc(NC(=O)Cn2cnc3ccc(S(=O)(=O)N4CCC(C)CC4)cc3c2=O)n1 | 13.4% | 0.411 µM [falling, single point] |  |
| Cc1nn(Cc2ccccc2)c(Cl)c1C(=O)OCc1nnc(-c2ccc(Cl)cc2)o1 | -1.32% | 0.461 µM [rising, full curve] | 0.291 µM [rising, partial curve, poor fit] |
| Cc1c(OC(C)C(=O)NCc2ccncc2)ccc2c3c(c(=O)oc12)CCCC3 (stereo not drawn) | -22.4% | 5.17 µM [falling, single point] | 4.11 µM [falling, full curve, poor fit] |
| CN(C)CCNC(=O)/C(=C/c1ccc(-c2ccc(Cl)cc2Cl)o1)NC(=O)c1ccccc1 | -50.8% | 0.291 µM [falling, full curve] | 10.3 µM [falling, partial curve, poor fit] |
| Nc1nnc(SCc2coc(-c3ccc(Cl)cc3)n2)s1 | 16.5% | 2.06 µM [rising, partial curve] |  |
| CCN(CC)c1ccc(/C=N/Nc2nc3ccccc3[nH]2)c(O)c1 | -89.1% | 25.9 µM [falling, single point] | 29.1 µM [falling, single point] |
| CCN(CC)C(=O)CN(Cc1ccccc1)S(=O)(=O)c1ccc(F)cc1 | 19.4% | 29.1 µM [rising, single point] |  |
| O=C(c1cc(-c2cccc(Cl)c2)on1)N1CCCCCC1 | 24.2% |  |  |

An excerpt of these results, in CSV form:
SMILES,cell number change,AC50 [1],AC50 [2]
O=C(CNS(=O)(=O)c1ccccc1)OCC(=O)c1ccc(Br)cc1,13.9%,,
Cc1c(C)c2ccc(O)c(CN3CCCC3)c2oc1=O,19%,"0.461 µM [falling, single point]",
CCOC(=O)CSc1cccc2cccnc12,-38%,,"8.2 µM [falling, partial curve]"
Cc1ccc(S(=O)(=O)N2CCOCC2)cc1NC(=O)Cn1nc(C)c([N+](=O)[O-])c1C,-25%,,
COc1cc2[nH]c(=S)nc(NC3CCCC3)c2cc1OC,-26%,"25.9 µM [falling, single point]",
CC1=C(C(=O)OC2CCCCC2)C(c2ccccc2)NC(=O)N1 (stereo not drawn),-67.5%,"0.0058 µM [falling, full curve, poor fit]","16.4 µM [falling, partial curve, poor fit]"
CCSc1nc2c(c(=O)[nH]1)C(c1cccnc1)C(C(=O)OC(C)C)=C(C)N2 (stereo not drawn),-17.8%,"20.6 µM [falling, single point]",
O=P(O)(O)CP(=O)(O)O,-15.9%,,"6.51 µM [falling, single point]"

Additional records follow:

| SMILES | cell number change | AC50 [1] | AC50 [2] |
| --- | --- | --- | --- |
| O=C(CN1CCN(c2ccc(O)cc2)CC1)NCC(=O)Nc1ccc(F)c(F)c1F | -0.695% | 10.3 µM [rising, partial curve] |  |
| Cc1ccc2[nH]c3c(=O)n(CC(=O)NCCCN4CCN(c5ccc(F)cc5)CC4)ncc3c2c1 |  | 6.51 µM [rising, single point] |  |
| COc1ccc(CN(CCO)CCO)cc1[N+](=O)[O-] | -11.4% |  | 6.51 µM [rising, single point] |
| Cc1cccc(NC(=O)CCn2ccnc2C)c1 | -24.2% | 29.1 µM [falling, single point] |  |
| Cc1onc(-c2ccccc2)c1C(=O)NNC(=S)NC(=O)c1ccc(Cl)cc1Cl | -38.3% | 18.4 µM [falling, partial curve, poor fit] | 25.9 µM [falling, partial curve, poor fit] |
| COC(=O)c1cc(OC)c(OC)cc1NC(=O)c1cc(-c2ccccc2)nc2ccccc12 | 20.7% | 1.64 µM [rising, partial curve] |  |
| CN(Cc1nc(-c2ccccn2)no1)S(=O)(=O)c1ccc(Br)cc1 |  |  | 6.51 µM [rising, single point] |
| Cc1ccc(C)c(S(=O)(=O)N2CCCOC2CNC(=O)C(=O)NCCCn2ccnc2)c1 (stereo not drawn) |  | 11.6 µM [falling, partial curve] |  |
| O=C(CN1C(=O)C2CCCCC2C1=O)Nc1ccccc1N1CCCC1 (stereo not drawn) | -32.9% |  | 25.9 µM [falling, single point] |
| O=c1[nH]c(Cc2ccccc2Cl)nc2ccccc12 | -43.8% | 29.1 µM [falling, single point] |  |
| Cn1nnnc1NCc1cccc(Cl)c1 | -11.8% | 5.8 µM [falling, single point] | 1.64 µM [falling, partial curve, poor fit] |
| COc1cccc2cc(C(=O)N3CCN(c4ccccn4)CC3)c(=O)oc12 |  |  | 4.61 µM [rising, partial curve] |
| Nc1nc(COc2ccc(F)cc2)nc(N2CCCCC2)n1 | -43.6% |  |  |
| CCN(CC)C(=O)OCCc1cc2ccccc2c(=O)o1 | -4.75% |  | 1.16 µM [rising, single point] |
| CCOc1ccc(-c2c(C)sc3nc[nH]c(=O)c23)cc1 | -3.23% | 29.1 µM [falling, single point] |  |
| CC(C)C[C@H](NC(=O)c1[nH]cnc1C(=O)N[C@@H](Cc1ccccc1)C(=O)OCc1ccccc1)C(=O)OCc1ccccc1 | 52.4% | 1.84 µM [falling, partial curve] | 11.6 µM [rising, partial curve, poor fit] |
| O=C(COc1ccc2ccccc2c1Br)NNC(=O)Nc1ccccc1 |  | 6.51 µM [rising, single point] |  |
| O=C(Cn1nc(C(=O)O)c2ccccc2c1=O)NC12CC3CC(CC(C3)C1)C2 | 34% |  | 23.1 µM [rising, single point] |
